Experimental data from publication PMC10042821.
Results are given in words; binding and its absence hold for the method and conditions named.

By UniProt entry, the sequences of proteins in these tests, tags left out. Where a name states a change or a piece, a line headed by the entry shows the natural chain unless it says otherwise. Residues count along the entry.
UniProt P49366: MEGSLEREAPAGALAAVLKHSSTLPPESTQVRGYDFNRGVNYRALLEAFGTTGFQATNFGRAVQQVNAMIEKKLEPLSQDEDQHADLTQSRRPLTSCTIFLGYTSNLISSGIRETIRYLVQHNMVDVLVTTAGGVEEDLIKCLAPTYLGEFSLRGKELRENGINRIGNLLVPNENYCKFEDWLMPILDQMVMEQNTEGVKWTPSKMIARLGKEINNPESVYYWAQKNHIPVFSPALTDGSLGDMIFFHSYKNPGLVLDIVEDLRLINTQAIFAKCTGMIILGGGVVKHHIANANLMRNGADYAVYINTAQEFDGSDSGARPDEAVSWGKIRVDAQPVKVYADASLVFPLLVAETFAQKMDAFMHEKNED
UniProt P63241, residues 15-151: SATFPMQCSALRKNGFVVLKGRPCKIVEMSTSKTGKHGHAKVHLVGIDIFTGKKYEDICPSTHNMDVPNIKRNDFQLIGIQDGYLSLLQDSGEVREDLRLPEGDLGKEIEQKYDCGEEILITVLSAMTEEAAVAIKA

What was measured:
Test in all cases: MST; His-tagged DHS variants labelled with RED-tris-NTA 2nd Generation, 8.32 nM; eIF5A titrated, sixteen dilutions 0.00175–57.5 μM; 50 mM Tris, 200 mM NaCl, 5 mM β-ME pH 8; Monolith NT.115, 40% excitation power, 60% MST power; no NAD or SPD; both purified
[1] = biological target: deoxyhypusine synthase Y250A, His-tagged (human) (UniProt P49366)
[2] = biological target: deoxyhypusine synthase Q83A, His-tagged (human) (UniProt P49366)
[3] = biological target: deoxyhypusine synthase N173A, His-tagged (human) (UniProt P49366)
[4] = biological target: deoxyhypusine synthase F247A, His-tagged (human) (UniProt P49366)
[5] = biological target: deoxyhypusine synthase M244A, His-tagged (human) (UniProt P49366)

Measured: binding

eukaryotic translation factor 5A (eIF5A-1), residues 15-151 (from UniProt P63241 15-151) (domain or fragment)
no binding (tested: > 5 µM): all assays above
